Among the data in publication doi:10.1101/2021.06.14.448173 are binding values, retold here.

No constants are given. Whether binding was seen depends on the method and setting. Where a sequence is shown, tags or fusion partners need not be part of it.

For the assay, the target named is T1, pre-mRNA-processing factor 39a (PRP39a), GAL4 DNA binding domain fusion (Arabidopsis thaliana) (UniProt Q93ZR3).
T1 sequence: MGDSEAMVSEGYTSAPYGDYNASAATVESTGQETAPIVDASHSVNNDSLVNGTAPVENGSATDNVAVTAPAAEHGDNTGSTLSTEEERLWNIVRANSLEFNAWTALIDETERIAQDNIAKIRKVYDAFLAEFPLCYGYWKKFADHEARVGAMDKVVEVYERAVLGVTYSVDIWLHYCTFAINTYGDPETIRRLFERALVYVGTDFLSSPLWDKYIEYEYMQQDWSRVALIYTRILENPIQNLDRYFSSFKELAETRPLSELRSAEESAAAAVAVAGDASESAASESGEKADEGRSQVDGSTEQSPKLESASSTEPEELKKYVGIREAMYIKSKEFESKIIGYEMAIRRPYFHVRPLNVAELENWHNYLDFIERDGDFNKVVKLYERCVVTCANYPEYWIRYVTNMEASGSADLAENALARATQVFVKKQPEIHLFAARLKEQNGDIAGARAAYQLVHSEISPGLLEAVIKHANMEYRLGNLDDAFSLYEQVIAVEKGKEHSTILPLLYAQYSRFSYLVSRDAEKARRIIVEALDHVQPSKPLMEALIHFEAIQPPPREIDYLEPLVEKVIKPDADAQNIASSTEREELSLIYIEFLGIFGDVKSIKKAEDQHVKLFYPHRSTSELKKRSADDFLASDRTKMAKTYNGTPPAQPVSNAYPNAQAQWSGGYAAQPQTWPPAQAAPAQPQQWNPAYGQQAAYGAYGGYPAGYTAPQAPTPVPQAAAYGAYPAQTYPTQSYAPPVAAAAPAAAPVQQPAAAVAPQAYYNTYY
Description: two-hybrid.

B1: RBP45c, GAL4 activation domain fusion (protein, UniProt Q93W34 1-415)
chain: MMQQPPPASNGAATGPGQIPSDQQAYLQQQQSWMMQHQQQQQGQPPAGWNQQSAPSSGQPQQQQYGGGGSQNPGSAGEIRSLWIGDLQPWMDENYLMNVFGLTGEATAAKVIRNKQNGYSEGYGFIEFVNHATAERNLQTYNGAPMPSSEQAFRLNWAQLGAGERRQAEGPEHTVFVGDLAPDVTDHMLTETFKAVYSSVKGAKVVNDRTTGRSKGYGFVRFADESEQIRAMTEMNGQYCSSRPMRTGPAANKKPLTMQPASYQNTQGNSGESDPTNTTIFVGAVDQSVTEDDLKSVFGQFGELVHVKIPAGKRCGFVQYANRACAEQALSVLNGTQLGGQSIRLSWGRSPSNKQTQPDQAQYGGGGGYYGYPPQGYEAYGYAPPPQDPNAYYGGYAGGGYGNYQQPGGYQQQQQ
For B1, the binding result is “no binding”.

B2: RBP47c, GAL4 activation domain fusion (protein, UniProt Q9SX79 1-432)
chain: MADVKIQSESESSDSHPVVDNQPPPPPPPPQQPAKEEENQPKTSPTPPPHWMRYPPTVIIPHQMMYAPPPFPPYHQYPNHHHLHHQSRGNKHQNAFNGENKTIWVGDLHHWMDEAYLNSSFASGDEREIVSVKVIRNKNNGLSEGYGFVEFESHDVADKVLREFNGTTMPNTDQPFRLNWASFSTGEKRLENNGPDLSIFVGDLSPDVSDNLLHETFSEKYPSVKAAKVVLDANTGRSKGYGFVRFGDENERTKAMTEMNGVKCSSRAMRIGPATPRKTNGYQQQGGYMPNGTLTRPEGDIMNTTIFVGGLDSSVTDEDLKQPFNEFGEIVSVKIPVGKGCGFVQFVNRPNAEEALEKLNGTVIGKQTVRLSWGRNPANKQPRDKYGNQWVDPYYGGQFYNGYGYMVPQPDPRMYPAAPYYPMYGGHQQQVS
Consider B2, for which the binding result is on record as “no binding”.

B3: RBP45b, GAL4 activation domain fusion (protein, UniProt Q9SAB3 1-405)
chain: MMQQPPPGGILPHHAPPPSAQQQYGYQQPYGIAGAAPPPPQMWNPQAAAPPSVQPTTADEIRTLWIGDLQYWMDENFLYGCFAHTGEMVSAKVIRNKQTGQVEGYGFIEFASHAAAERVLQTFNNAPIPSFPDQLFRLNWASLSSGDKRDDSPDYTIFVGDLAADVTDYILLETFRASYPSVKGAKVVIDRVTGRTKGYGFVRFSDESEQIRAMTEMNGVPCSTRPMRIGPAASKKGVTGQRDSYQSSAAGVTTDNDPNNTTVFVGGLDASVTDDHLKNVFSQYGEIVHVKIPAGKRCGFVQFSEKSCAEEALRMLNGVQLGGTTVRLSWGRSPSNKQSGDPSQFYYGGYGQGQEQYGYTMPQDPNAYYGGYSGGGYSGGYQQTPQAGQQPPQQPPQQQQVGFSY
Consider B3, for which the binding result was “no binding”.

B4: RBP45a, GAL4 activation domain fusion (protein, UniProt Q9FPJ8 1-387)
chain: MQQPPSNAAGAGQIPSGQQHLWMMMQQQQQQQQMQLSAAPLGQHQYGIGSQNPGSASDVKSLWIGDLQQWMDENYIMSVFAQSGEATSAKVIRNKLTGQSEGYGFIEFVSHSVAERVLQTYNGAPMPSTEQTFRLNWAQAGAGEKRFQTEGPDHTIFVGDLAPEVTDYMLSDTFKNVYGSVKGAKVVLDRTTGRSKGYGFVRFADENEQMRAMTEMNGQYCSTRPMRIGPAANKNALPMQPAMYQNTQGANAGDNDPNNTTIFVGGLDANVTDDELKSIFGQFGELLHVKIPPGKRCGFVQYANKASAEHALSVLNGTQLGGQSIRLSWGRSPNKQSDQAQWNGGGYYGYPPQPQGGYGYAAQPPTQDPNAYYGGYTGYGNYQQQRQ
With B4, the binding entry is reported as “no binding”.

B5: RBP47a, GAL4 activation domain fusion (protein, UniProt F4I3B3 1-445)
chain: MQTPNNNGSTDSVLPPTSAGTTPPPPLQQSTPPPQQQQQQQWQQQQQWMAAMQQYPAAAMAMMQQQQMMMYPHPQYAPYNQAAYQQHPQFQYAAYQQQQQQHHQSQQQPRGGSGGDDVKTLWVGDLLHWMDETYLHTCFSHTNEVSSVKVIRNKQTCQSEGYGFVEFLSRSAAEEALQSFSGVTMPNAEQPFRLNWASFSTGEKRASENGPDLSIFVGDLAPDVSDAVLLETFAGRYPSVKGAKVVIDSNTGRSKGYGFVRFGDENERSRAMTEMNGAFCSSRQMRVGIATPKRAAAYGQQNGSQALTLAGGHGGNGSMSDGESNNSTIFVGGLDADVTEEDLMQPFSDFGEVVSVKIPVGKGCGFVQFANRQSAEEAIGNLNGTVIGKNTVRLSWGRSPNKQWRSDSGNQWNGGYSRGQGYNNGYANQDSNMYATAAAAVPGAS
With B5, the binding entry is “no binding”.

B6: RBP47c’, GAL4 activation domain fusion (protein, UniProt Q9SX80 1-434)
chain: MADVKVQSESESSDSHPLVDYQSLPPYPPPHPPVEVEENQPKTSPTPPPPHWMRYPPVLMPQMMYAPPPPMPFSPYHQYPNHHHFHHQSRGNKHQNAFNGENKTIWVGDLQNWMDEAYLNSAFTSAEEREIVSLKVIRNKHNGSSEGYGFVEFESHDVADKVLQEFNGAPMPNTDQPFRLNWASFSTGEKRLENNGPDLSIFVGDLAPDVSDALLHETFSEKYPSVKAAKVVLDANTGRSKGYGFVRFGDENERTKAMTEMNGVKCSSRAMRIGPATPRKTNGYQQQGGYMPSGAFTRSEGDTINTTIFVGGLDSSVTDEDLKQPFSEFGEIVSVKIPVGKGCGFVQFVNRPNAEEALEKLNGTVIGKQTVRLSWGRNPANKQPRDKYGNQWVDPYYGGQFYNGYGYMVPQPDPRMYPAAPYYPMYGGHQQQVS
For B6, the binding entry is given as “no binding”.

B7: RBP47b, GAL4 activation domain fusion (protein, UniProt Q0WW84 1-435)
chain: MQTTNGSDSTLATSGATPPNQQTPPPPQQWQQQQQQQQQWMAAMQYPPAAAMMMMQQQQMLMYPHQYVPYNQGPYQQHHPQLHQYGSYQQHQHQQHKAIDRGSGDDVKTLWVGDLLHWMDETYLHSCFSHTGEVSSVKVIRNKLTSQSEGYGFVEFLSRAAAEEVLQNYSGSVMPNSDQPFRINWASFSTGEKRAVENGPDLSVFVGDLSPDVTDVLLHETFSDRYPSVKSAKVVIDSNTGRSKGYGFVRFGDENERSRALTEMNGAYCSNRQMRVGIATPKRAIANQQQHSSQAVILAGGHGSNGSMGYGSQSDGESTNATIFVGGIDPDVIDEDLRQPFSQFGEVVSVKIPVGKGCGFVQFADRKSAEDAIESLNGTVIGKNTVRLSWGRSPNKQWRGDSGQQWNGGYSRGHGYNNGGGYANHHDSNNYHGEN
As to B7, the binding result is on record as “no binding”.
